# Data: PubChem BioAssay AID1259415 (National Center for Advancing Translational Sciences (NCATS), 2018)
# The whole screen tested about 410,000 compounds, of which about 18,000 (4.4%) were called active. The inconclusive results got no clear call from the source; some entries with a clear call stand among them for comparison. Cut-off read from the data, not from the text of the source: active = activity change below about -60%; inconclusive = no clear call, values can overlap the other calls; inactive = above about -39%.
# Test: qHTS Assay for inhibitors of the human cytomegalovirus (HCMV)
# Conditions: HFF cells, HCMV-luciferase reporter, 72 h; at 57.5 µM; active compounds read low
# Procedure, shortened: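 HFF cells seeded 16 h at 37C, treated with compounds, infected with luciferase-reporter HCMV at MOI 1 PFU/cell; luciferase read at 72 h post infection, normalized to buffer-only and Salinomycin controls.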
# % is set by controls: 0 for no effect and ±100 for the full control effect.
row,SMILES,"activity change, negative = inhibition"
1,CCC1CCC/C1=N\NC(=O)c1ccccc1Cl (stereo not drawn),inactive: -5.65%
2,CC1CCCN(S(=O)(=O)c2cc(C(=O)NCCc3ccc(S(N)(=O)=O)cc3)ccc2Cl)C1 (stereo not drawn),inconclusive: 0%
3,Cc1sc2ncnc(SCc3ccco3)c2c1C,inconclusive: -45.1%
4,CCOc1ccc2ccccc2c1/C=N/NC(=O)CNC(=O)C(c1ccccc1)c1ccccc1,inconclusive: -40.6%
5,CC1CC(C)CN(CCCNC(=O)c2ccc(CS(=O)(=O)Cc3ccccc3F)o2)C1 (stereo not drawn),active: -73.1%
6,O=C(O)/C=C/C(=O)Nc1cc(F)ccc1F,inconclusive: -50.1%
7,COc1ccc(C(=O)Nc2cc(C(C)C)c(O)c(S(=O)(=O)c3ccc(OC)cc3)c2C)cc1,active: -104%
8,CCOC(=O)CC1(C)Sc2ccccc2N1S(=O)(=O)c1ccc(C)cc1 (stereo not drawn),inactive: -20.2%
9,CNC(=O)c1ccsc1NC(=O)c1ccc(S(=O)(=O)N2CCc3ccccc32)cc1,inconclusive: -53.2%
10,CCS(=O)(=O)N1CCC(C(=O)NCCCN2CCC(Cc3ccccc3)CC2)CC1,inactive: 3.85%
11,CC(C)c1ccccc1NC(=O)COC(=O)Cc1cccc(C(F)(F)F)c1,inconclusive: -40.2%
12,CCOc1ccc(NC(=O)CCCNC(=O)Cn2cnc3sc(C)c(C)c3c2=O)cc1,inconclusive: -47%
13,O=C(c1cc(COc2ccc3ncccc3c2)on1)N1CCC(O)CC1,active: -82.4%
14,COc1ccc(NC(=O)c2ccc3c(=O)n4nc(Nc5cc(C)ccc5C)sc4nc3c2)cc1,inconclusive: -57.7%
15,CCOc1ccccc1CNC(=O)C1CCN(C2=NS(=O)(=O)C(c3ccc(C)c(C)c3)=C2C)CC1,inactive: -8.14%
16,Cc1ccc([C@H]2Nc3ccc(S(=O)(=O)Nc4cccc(Cl)c4C)cc3[C@H]3C=CC[C@H]32)cc1,inconclusive: -52.8%
17,CCn1nc(C)c(C2C(C#N)=C(N)OC3=C2C(=O)CC(C)(C)C3)c1C (stereo not drawn),inconclusive: -41.6%
18,C=CCc1ccc(OCC(O)CN2CCN(c3ccccc3)CC2)c(OC)c1 (stereo not drawn),active: -61.8%
19,O=CNc1cc(-c2ccsc2)cn2c(-c3ccccc3)cnc12,inconclusive: -51.4%
20,Cc1c(NC(=O)CN2C(=O)NC3(CCCC3)C2=O)c(=O)n(-c2ccccc2)n1C,active: -101%
21,O=C(N/N=C/c1coc2ccccc2c1=O)c1cc(O)cc(O)c1,inconclusive: -57.6%
22,N#CC[C@H](Cc1ccccc1)N1CC[C@@H](O)CCC1=O,inconclusive: -40.1%

row,SMILES,"activity change, negative = inhibition"
1,CCCc1c(C(=O)N/N=C(\C)c2cccnc2)nnn1-c1nonc1N,inconclusive: -41%
2,O=C(NC1CC1)c1ccc(CN(c2ccccc2)S(=O)(=O)c2ccccc2)cc1,inconclusive: -44.4%
3,Cc1cccc(NC2=C(C#N)C(=O)NC3(CCCC3)S2)c1,inactive: -12.2%
4,O=C1OC(OC2CCCCC2)(c2ccccc2)c2ccccc21 (stereo not drawn),inconclusive: -47.8%
5,COCCCn1c(-c2ccc(OC)cc2)cc(C(=O)NC2CCCCCCC2)c1C,active: -64.5%
6,CCOc1ccc(CCNC(=O)CCNS(=O)(=O)c2ccc3c(c2)CCN3C(C)=O)cc1OCC,inconclusive: -50.3%
7,CC1CCCC(NC(=O)COC(=O)CN2C(=O)C3CCCCC3C2=O)C1C (stereo not drawn),inconclusive: -41.1%
8,CSCCC(NC(C)=O)C(=O)Oc1ccc2c3c(c(=O)oc2c1)CCCC3 (stereo not drawn),inconclusive: -46.3%
9,CCOC(=O)Cn1cnc2sc(C(=O)OC)c(C)c2c1=O,inactive: -34.3%
10,Cc1ccc(N(C(=O)Cn2nnc(-c3ccc(F)cc3)n2)C(C(=O)NC(C)(C)C)c2ccncc2)cc1 (stereo not drawn),inconclusive: -41.5%
11,CC(C)C[C@@H](COc1ccccc1)N1CCN(Cc2ccccc2)CCC1=O,active: -102%
12,Cn1c(=O)c(C(=O)COC(=O)c2cc(C(F)(F)F)nc3ccccc23)c(N)n(Cc2ccccc2)c1=O,inactive: 53.4%
13,COc1ccc(Cn2cc(C(=O)c3ccc(Cl)cc3)c(=O)c3cc4c(cc32)OCO4)cc1,active: -98.3%
14,O=C(O)C1CC=CCC1C(=O)Nc1ccc(S(=O)(=O)N2CCCc3ccccc32)cc1 (stereo not drawn),active: -76.4%
15,COc1cccc(CSc2nc3ccccc3[nH]2)c1,inactive: -12.7%
16,O=C(CCN1C(=O)c2cccc3cccc(c23)C1=O)Nc1ccon1,inconclusive: -41.1%
17,Cc1ccc(NS(=O)(=O)c2ccc(-n3cccn3)cc2)c(C)c1,inconclusive: -43.3%
18,COc1ccc(OCCCC(=O)Nc2nc(-c3ccccn3)cs2)cc1,inconclusive: -40.7%
19,O=c1c2ccccc2nc(-c2ccco2)n1/N=C/c1ccccc1O,inconclusive: -46%
20,C/C(=N\NC(=O)C(C)Oc1ccc([N+](=O)[O-])cc1)c1ccccn1 (stereo not drawn),active: -104%
21,CN(C)c1ccc(C=C2C(=O)NC(=O)NC2=O)cc1[N+](=O)[O-],inactive: -17.2%

# 3 records picked at random from the list so far, as already listed:
row,SMILES,"activity change, negative = inhibition"
1,CCCc1c(C(=O)N/N=C(\C)c2cccnc2)nnn1-c1nonc1N,inconclusive: -41%
4,O=C1OC(OC2CCCCC2)(c2ccccc2)c2ccccc21 (stereo not drawn),inconclusive: -47.8%
14,O=C(O)C1CC=CCC1C(=O)Nc1ccc(S(=O)(=O)N2CCCc3ccccc32)cc1 (stereo not drawn),active: -76.4%
